Reference: PMC3788105
No constants are given. Whether binding was seen depends on the method and setting. Binding seen in cells or lysates may run through a third protein. Binding calls can cover weak binding; strength is not graded here.

Assays:
Experiment in all cases: co-IP; HA-Htz1 immunoprecipitated from soluble yeast cell lysate with monoclonal anti-HA agarose beads overnight at 4°C, washed three times in co-IP buffer; partners detected by immunoblot (anti-Flag or anti-Chz1)
[1] = target: HA-tagged Htz1 I109T (S. cerevisiae)
[2] = target: HA-tagged Htz1 S111P (S. cerevisiae)
[3] = target: HA-tagged Htz1 ∆111-133 (truncated at position 110) (S. cerevisiae)

binding [1]: binds
binding [2]: binds
binding [3]: binds
B1: Chz1 (protein, UniProt P40019 1-153)
chain: MSDEAKEKRELESQKESSHNKSEKSVEPKPKRRRRRNYDDYDAEVAKEETKAKNGLTKSENNGTVEDSESDMDDAKLDALMGNEGEEEEDDLAEIDTSNIITSGRRTRGKVIDYKKTAEELDKKEPSTGSKDDVGYGEKEEDDEDEEDDDFKE
